PubChem BioAssay AID504834 (National Center for Advancing Translational Sciences (NCATS), 2011)
Hit rate of the full screen: of about 320,000 compounds, about 22,000 (6.9%) were called active. The inconclusive results got no clear call from the source; some entries with a clear call stand among them for comparison. Calls come from the whole dose curve; as a rule, active = well fitted inhibition curve with a large enough effect; inconclusive = small, poorly fitted or top-dose-only effect, or another doubt; inactive = no such curve, though single readings can be large or run the other way. Potencies of inconclusive entries are doubtful fits and often do not repeat.

assay: Primary qHTS for delayed death inhibitors of the malarial parasite plastid, 96 hour incubation; settings: P. falciparum luciferase reporter growth; series mostly up to 28.7 µM
Summary of the method: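 P. falciparum expressing integrated firefly luciferase, in erythrocytes at 2% hematocrit, 0.05% parasitemia, incubated with compounds 96 h at 37 C, 5% CO2. Growth inhibition read as loss of luminescence; two-generation exposure targets delayed-death apicoplast inhibitors.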
Potency is the fitted concentration of half-maximal effect.

| SMILES | Potency |
| --- | --- |
| COCCNC(=O)/C(C#N)=C/c1ccc(OCc2ccc(F)cc2)cc1 | inconclusive: 16.5 µM [inhibitor, single point] |
| CN(CC(=O)Nc1ccccc1C(=O)NC1CC1)Cc1ccc(Cl)s1 | inconclusive: 18.5 µM [inhibitor, single point] |
| Cc1c(Cl)c([N+](=O)[O-])nn1CCCC(=O)N(Cc1ccccc1)Cc1ccccc1 | inconclusive: 18.5 µM [inhibitor, single point] |
| CN1C(=O)CSc2ccc(NC(=O)N3CCN(c4ccccc4)CC3)cc21 | inactive |
| COc1cc(CN2CCNC(=O)C2CC(=O)NCCc2ncccc2C)cc(OC)c1 (configuration not stated) | inconclusive: 11.7 µM [inhibitor, single point] |
| O=C(CSc1nc2ccccc2o1)Nc1nccs1 | inconclusive: 5.22 µM [inhibitor, partial curve, poor fit] |
| CNc1c([N+](=O)[O-])cnn1-c1ccc(Cl)cc1Cl | inactive |
| C=CCOc1ccc(/C=C/C(=O)OCC(=O)NC2CCCCCC2)cc1 | inactive |
| OC(CNCc1ccc(Cl)cc1)(c1ccccc1)c1ccc(F)cc1 (configuration not stated) | inconclusive: 5.22 µM [inhibitor, partial curve] |
| O=C(N/N=C/c1c(O)n(CCC2=CCCCC2)c(=O)[nH]c1=O)c1ccccc1 | inconclusive: 18.5 µM [inhibitor, single point] |
| CC(C)Oc1ccc(S(=O)(=O)N(C(C)C)C(C)C)cn1 | inconclusive: 5.22 µM [inhibitor, partial curve] |
| C=CCSc1nnc(NC(=O)Cn2cnc3c2c(=O)n(C)c(=O)n3C)s1 | inconclusive: 14.7 µM [inhibitor, partial curve, poor fit] |
| N#Cc1ccc(NC(=O)Cn2cnc([N+](=O)[O-])c2)cc1 | active: 11.7 µM |
| COc1cccc(CNC(=O)C(C)n2ccc3cc(S(=O)(=O)N4CCCC4)ccc32)c1 (configuration not stated) | inconclusive: 0.928 µM [inhibitor, full curve, poor fit] |
| Cc1cc(C)cc(CN2C(=O)NC3(CCCCCC3)C2=O)c1 | inconclusive: 11.7 µM [inhibitor, partial curve, poor fit] |
| Cc1cccc(C)c1OCc1cc(C(=O)N2CCN(Cc3nccn3C)CC2)no1 | inconclusive: 11.7 µM [inhibitor, single point] |
| CCCCn1c(=N)c(S(=O)(=O)c2ccc(Br)cc2)cc2c(=O)n3cccc(C)c3nc21 | inconclusive: 2.33 µM [inhibitor, partial curve, poor fit] |
| COC(=O)C1=C(c2ccc(Cl)c(C(F)(F)F)c2)C[C@@H]2CC[C@H]1N2C | inconclusive: 18.5 µM [inhibitor, single point] |
| Cc1ccc(C(=O)NCC(c2ccco2)N2CCc3ccccc32)cc1C (configuration not stated) | inconclusive: 10.4 µM [inhibitor, single point] |
| O=C(c1ccc(N2CCCCC2)c([N+](=O)[O-])c1)N1CCN(S(=O)(=O)c2ccccc2)CC1 | inconclusive: 8.28 µM [inhibitor, partial curve] |
| CCOc1ccc(OCCOc2ncnc3ccccc23)cc1 | inactive |

| SMILES | Potency |
| --- | --- |
| CCOC(=O)C1=C(C)N(CCCC(=O)O)C(=O)NC1c1ccccc1OS(=O)(=O)c1ccc(C)cc1 (configuration not stated) | inconclusive: 18.5 µM [inhibitor, single point] |
| CC(=O)N1Cc2ccccc2CC1C(=O)N1CCN(c2ccccc2)CC1 (configuration not stated) | inconclusive: 11.7 µM [inhibitor, single point] |
| Cc1cc(OCC(=O)NCc2cccnc2)c2c3c(c(=O)oc2c1)CCCC3 | inconclusive: 16.5 µM [inhibitor, single point] |
| Cc1ccc(N(C)C(=O)C2CCCN2S(=O)(=O)c2cccc3nsnc23)cc1 (configuration not stated) | inconclusive: 9.28 µM [inhibitor, single point] |
| COc1ccccc1OCC(=O)Nc1cc(C(F)(F)F)ccc1-n1cncn1 | inconclusive: 4.15 µM [inhibitor, partial curve] |
| O=C(NCCc1ccccc1)C(=O)NCC1OCCN1S(=O)(=O)c1cccs1 (configuration not stated) | inactive |
| COc1ccc(-c2cc(C(F)(F)F)nc(N3CCOCC3)n2)cc1OC | inconclusive: 0.147 µM [inhibitor, full curve, poor fit] |
| CCN(c1ccccc1)S(=O)(=O)c1ccc(NN)nc1 | inconclusive: 18.5 µM [inhibitor, single point] |
| FC(F)(F)c1ccc(CN2C[C@@H]3C(c4ccccc4)C4(c5ccccc5)CC3(C4)[C@H]2c2ccccc2)cc1 (some centres not stated) | inconclusive: 2.08 µM [inhibitor, partial curve, poor fit] |
| CCOC(=O)c1c(NC(=O)CNC2CCCCC2)sc(C)c1C | inactive |
| CN1CCN(c2ccc(NC(=O)c3ccccc3)cc2)CC1 | inactive |
| COCc1c(C(=O)OCC(=O)NCCc2ccc(S(N)(=O)=O)cc2)oc2ccccc12 | inactive |
| Nc1cccc(NP(=O)(c2ccccc2)c2ccccc2)c1 | inactive |
| CCOC(=O)c1sc(NC(=O)CSc2nc3c(c(=O)n2-c2ccccc2)SCC3)c(C(=O)OCC)c1C | active: 3.7 µM |
| COC(=O)c1ccccc1NC(=O)c1ccc(-c2cccc(Cl)c2)o1 | inactive |
| O=C(CSc1nnc(NC(=O)c2c(F)cccc2F)s1)Nc1ccc(F)cc1 | inconclusive: 0.37 µM [inhibitor, full curve, poor fit] |
| COc1ccc(Cl)cc1NC(=O)COC(=O)c1ccc(C)o1 | inconclusive: 11.7 µM [inhibitor, single point] |
| CC(C)(C)NC(=O)C(c1c[nH]c2ccccc12)N(C(=O)Cn1nnc(-c2ccc(Cl)cc2)n1)c1ccccc1F (configuration not stated) | inactive |
| Cn1c(=O)n(C)c2cc(S(=O)(=O)Nc3ccccc3C(=O)O)ccc21 | inconclusive: 18.5 µM [inhibitor, single point] |
| CCN1C/C(=C/c2ccc(N3CCOCC3)cc2)C(=O)/C(=C/c2ccc(N3CCOCC3)cc2)C1 | active: 4.15 µM |
| O=C(O)c1[nH]c2ccc(Cl)cc2c1CCN1C(=O)c2ccccc2C1=O | inconclusive: 2.33 µM [inhibitor, partial curve, poor fit] |

3 entries drawn at random from the list so far:

| SMILES | Potency |
| --- | --- |
| CNc1c([N+](=O)[O-])cnn1-c1ccc(Cl)cc1Cl | inactive |
| O=C(NCCc1ccccc1)C(=O)NCC1OCCN1S(=O)(=O)c1cccs1 (configuration not stated) | inactive |
| FC(F)(F)c1ccc(CN2C[C@@H]3C(c4ccccc4)C4(c5ccccc5)CC3(C4)[C@H]2c2ccccc2)cc1 (some centres not stated) | inconclusive: 2.08 µM [inhibitor, partial curve, poor fit] |
